Binding data for 2 substances are collected here from article PMC4541371.

Protein sequences, listed by entry. Tags and fused reporters are not part of them. Lines headed by an entry give the natural chain unless they say otherwise; changes in a name come on top.
UniProt O60603: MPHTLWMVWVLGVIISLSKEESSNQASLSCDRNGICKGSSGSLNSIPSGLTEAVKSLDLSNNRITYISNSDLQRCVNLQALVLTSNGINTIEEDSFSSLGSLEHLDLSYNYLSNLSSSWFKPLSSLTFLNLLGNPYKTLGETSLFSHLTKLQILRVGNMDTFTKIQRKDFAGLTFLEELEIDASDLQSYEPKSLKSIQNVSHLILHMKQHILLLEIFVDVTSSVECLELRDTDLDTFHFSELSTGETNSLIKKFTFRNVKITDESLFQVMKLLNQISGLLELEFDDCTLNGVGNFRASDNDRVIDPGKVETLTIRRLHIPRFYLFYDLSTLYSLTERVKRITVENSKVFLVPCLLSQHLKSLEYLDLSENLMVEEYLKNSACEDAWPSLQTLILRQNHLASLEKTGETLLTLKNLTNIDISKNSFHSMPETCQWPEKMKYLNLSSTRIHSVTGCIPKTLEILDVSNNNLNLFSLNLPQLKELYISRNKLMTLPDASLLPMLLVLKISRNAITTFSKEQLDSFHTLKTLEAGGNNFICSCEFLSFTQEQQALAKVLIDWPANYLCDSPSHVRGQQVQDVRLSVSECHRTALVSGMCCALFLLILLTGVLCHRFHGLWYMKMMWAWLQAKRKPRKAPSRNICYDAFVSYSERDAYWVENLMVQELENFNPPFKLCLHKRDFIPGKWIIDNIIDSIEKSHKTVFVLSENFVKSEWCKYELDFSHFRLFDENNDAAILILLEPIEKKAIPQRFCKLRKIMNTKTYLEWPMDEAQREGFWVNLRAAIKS

Assay [1] addresses T1, pure CD14 (sCD14), blotted as positive control (UniProt P08571).
T1 sequence: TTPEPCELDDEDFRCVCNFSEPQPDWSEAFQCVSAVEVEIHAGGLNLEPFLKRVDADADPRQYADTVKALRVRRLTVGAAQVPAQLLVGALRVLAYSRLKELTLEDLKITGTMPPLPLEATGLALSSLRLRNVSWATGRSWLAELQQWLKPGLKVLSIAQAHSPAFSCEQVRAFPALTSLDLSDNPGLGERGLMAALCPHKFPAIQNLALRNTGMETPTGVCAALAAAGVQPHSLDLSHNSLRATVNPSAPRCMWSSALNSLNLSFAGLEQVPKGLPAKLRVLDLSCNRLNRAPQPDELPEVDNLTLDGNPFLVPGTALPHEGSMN
The assay is described as follows: far-Western, overlay or dot blot; 20 pmol of each protein blotted onto nitrocellulose; membrane incubated with TZMbl-2 cell membrane fraction; probed with anti-TLR2 antibody, chemiluminescence; only the target purified.

Assay [2] addresses T2, CD14 expressed from pCD14 in HEK293 cells (UniProt P08571).
T2 sequence: T1 sequence
The assay is described as follows: co-IP; positive control: HEK293 lysates with TLR2-Flag and with CD14 mixed in presence of 10 ug/mL Pam3CSK4, BWB, 4 C; anti-CD14 antibody, protein G Dynabeads; blot probed with anti-Flag.

No constants are given. Whether binding was seen depends on the method and setting. For some assays here: Binding seen in cells or lysates may run through a third protein. Some entries that bind do so weakly or less than the wild type.

For “human TLR2, stably expressed in TZMbl-2 cells (plasmid pIhT2G) (from UniProt O60603 21-784) (receptor)”, the binding result in assay [1] was “binds”.

Turning to “TLR2-Flag (human TLR2 with three C-terminal Flag tags, plasmid pIhT2FG) (from UniProt O60603 21-784) (receptor)”, the binding result in assay [2] is “binds”.
